Data reported in US5849525A, “Compositions corresponding to a proton-coupled peptide transporter and methods of making and using same” (Brigham and Women's Hospital, Inc., priority 1995, dated 1998).
Entries after “also recorded” stand apart in the source; their conditions may differ.

Target: T1, proton-coupled peptide transporter (Oryctolagus cuniculus, UniProt P36836)
T1 construct: Xenopus laevis oocytes were injected with cRNA coding the proton-coupled peptide transporter; expressed in transfected cells; host or cells: Xenopus laevis oocytes injected with cRNA transcribed in vitro from the cloned cDNA
T1 sequence (P36836 1-707): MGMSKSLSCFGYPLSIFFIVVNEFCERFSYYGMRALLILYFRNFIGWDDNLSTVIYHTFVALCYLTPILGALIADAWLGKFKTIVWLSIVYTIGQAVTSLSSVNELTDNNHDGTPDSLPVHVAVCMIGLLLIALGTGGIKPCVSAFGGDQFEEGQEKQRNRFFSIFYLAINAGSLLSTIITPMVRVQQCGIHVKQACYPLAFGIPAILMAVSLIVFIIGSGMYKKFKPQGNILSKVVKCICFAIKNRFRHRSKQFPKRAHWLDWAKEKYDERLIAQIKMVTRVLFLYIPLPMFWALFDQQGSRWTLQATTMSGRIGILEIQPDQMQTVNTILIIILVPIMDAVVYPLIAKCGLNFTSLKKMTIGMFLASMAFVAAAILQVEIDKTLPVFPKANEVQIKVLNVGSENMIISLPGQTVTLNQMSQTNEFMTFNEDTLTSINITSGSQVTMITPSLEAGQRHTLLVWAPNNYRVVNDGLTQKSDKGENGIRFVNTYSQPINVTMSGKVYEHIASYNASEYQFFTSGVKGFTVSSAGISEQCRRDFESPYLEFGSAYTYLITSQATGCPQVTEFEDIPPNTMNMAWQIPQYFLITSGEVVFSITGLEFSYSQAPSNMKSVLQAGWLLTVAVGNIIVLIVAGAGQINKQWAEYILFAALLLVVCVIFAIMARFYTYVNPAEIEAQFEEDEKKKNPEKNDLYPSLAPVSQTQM
Assay: Two-electrode voltage clamp of Xenopus laevis oocytes injected with transporter cRNA: substrate-evoked inward currents and Km
Format: cell-based, rabbit
Conditions: uptake solution pH 5.5
From the text: These oocytes were subjected to two electrode voltages clamp analysis (Gene Clamp 500, Axon Instruments, California) in the manner described in Kanaisy & Hediger, M. A. Nature 360, 467-71 (1992).
FIG. 9 depicts electrophysiological measurements of transformed cocytes as a percent of glycyl-sarcosine evoked current. Data representing glycyl-sarcosine are depicted as a solid black bar. Data representing peptide are depicted with dotted bars. Data representing antibiotics are depicted with hatched bars.
By altering peptide concentrations, current amplitudes for different compositions, Km values were determined.

In the case of `CC1=C(C(=O)O)N2C(=O)[C@@H](NC(=O)[C@H](N)c3ccccc3)[C@H]2SC1` [Cephalexin], the substrate-evoked inward current is reported as “Significant currents; also recorded: weakest current”.
